Assay results reported in PMC9677703.
Results are given in words; binding and its absence hold for the method and conditions named. Binding seen in cells or lysates may run through a third protein.

Chains of the proteins cited; added tags and fusions are not shown. Lines headed by an entry give the natural chain unless they say otherwise; changes in a name come on top.
UniProt P61328: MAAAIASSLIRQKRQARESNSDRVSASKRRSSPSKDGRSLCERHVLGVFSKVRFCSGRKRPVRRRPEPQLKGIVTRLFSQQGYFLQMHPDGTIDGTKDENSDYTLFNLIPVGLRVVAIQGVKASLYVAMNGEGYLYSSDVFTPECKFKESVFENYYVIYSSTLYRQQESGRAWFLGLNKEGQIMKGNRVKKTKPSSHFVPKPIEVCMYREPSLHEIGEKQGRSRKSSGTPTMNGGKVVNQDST

Target: FGF12Δ-His (131–181 FGF12 deletion mutant) (UniProt P61328)
Test: pull-down; recombinant FGF12-His or FGF12Δ-His bound to Ni Sepharose (1 h, 4 °C), incubated with U2OS cell lysate (0.15 M KCl, 40 mM Tris, 1% NP-40, 1 mM EDTA, pH 7.2) overnight at 4 °C; western blotting; also with nuclease-treated lysate (no effect); only the target purified

B1: treacle ribosome biogenesis factor 1 (protein, UniProt Q13428 1-1488)
chain: MAEARKRRELLPLIYHHLLRAGYVRAAREVKEQSGQKCFLAQPVTLLDIYTHWQQTSELGRKRKAEEDAALQAKKTRVSDPISTSESSEEEEEAEAETAKATPRLASTNSSVLGADLPSSMKEKAKAETEKAGKTGNSMPHPATGKTVANLLSGKSPRKSAEPSANTTLVSETEEEGSVPAFGAAAKPGMVSAGQADSSSEDTSSSSDETDVEGKPSVKPAQVKASSVSTKESPARKAAPAPGKVGDVTPQVKGGALPPAKRAKKPEEESESSEEGSESEEEAPAGTRSQVKASEKILQVRAASAPAKGTPGKGATPAPPGKAGAVASQTKAGKPEEDSESSSEESSDSEEETPAAKALLQAKASGKTSQVGAASAPAKESPRKGAAPAPPGKTGPAVAKAQAGKREEDSQSSSEESDSEEEAPAQAKPSGKAPQVRAASAPAKESPRKGAAPAPPRKTGPAAAQVQVGKQEEDSRSSSEESDSDREALAAMNAAQVKPLGKSPQVKPASTMGMGPLGKGAGPVPPGKVGPATPSAQVGKWEEDSESSSEESSDSSDGEVPTAVAPAQEKSLGNILQAKPTSSPAKGPPQKAGPVAVQVKAEKPMDNSESSEESSDSADSEEAPAAMTAAQAKPALKIPQTKACPKKTNTTASAKVAPVRVGTQAPRKAGTATSPAGSSPAVAGGTQRPAEDSSSSEESDSEEEKTGLAVTVGQAKSVGKGLQVKAASVPVKGSLGQGTAPVLPGKTGPTVTQVKAEKQEDSESSEEESDSEEAAASPAQVKTSVKKTQAKANPAAARAPSAKGTISAPGKVVTAAAQAKQRSPSKVKPPVRNPQNSTVLARGPASVPSVGKAVATAAQAQTGPEEDSGSSEEESDSEEEAETLAQVKPSGKTHQIRAALAPAKESPRKGAAPTPPGKTGPSAAQAGKQDDSGSSSEESDSDGEAPAAVTSAQVIKPPLIFVDPNRSPAGPAATPAQAQAASTPRKARASESTARSSSSESEDEDVIPATQCLTPGIRTNVVTMPTAHPRIAPKASMAGASSSKESSRISDGKKQEGPATQVSKKNPASLPLTQAALKVLAQKASEAQPPVARTQPSSGVDSAVGTLPATSPQSTSVQAKGTNKLRKPKLPEVQQATKAPESSDDSEDSSDSSSGSEEDGEGPQGAKSAHTLGPTPSRTETLVEETAAESSEDDVVAPSQSLLSGYMTPGLTPANSQASKATPKLDSSPSVSSTLAAKDDPDGKQEAKPQQAAGMLSPKTGGKEAASGTTPQKSRKPKKGAGNPQASTLALQSNITQCLLGQPWPLNEAQVQASVVKVLTELLEQERKKVVDTTKESSRKGWESRKRKLSGDQPAARTPRSKKKKKLGAGEGGEASVSPEKTSTTSKGKAKRDKASGDVKEKKGKGSLGSQGAKDEPEEELQKGMGTVEGGDQSNPKSKKEKKKSDKRKKDKEKKEKKKKAKKASTKDSESPSQKKKKKKKKTAEQTV
modifications: heavily phosphorylated (sites not given)
  binding: no binding
